Results reported in PubChem BioAssay (NCATS).
Inconclusive results, whose numbers are uncertain, are shown with a selection of clear calls. For part of these data: Where the call is inconclusive, the potency comes from a doubtful curve fit. The source made the active and inactive calls. The call rests on the fitted dose curve; in most records, active means well fitted curve in the direction sought with a large enough effect; inconclusive means small, poorly fitted or top-dose-only effect, or another doubt; inactive means no such curve, though single readings can be large; an effect the other way counts as inactive or inconclusive.

Tests used:
[1] = Quantitative High-Throughput drug screen in 47 multiple myeloma cell lines against the NCATS MIPE library collection: Karpas417_ECACC cell viability assay (AID 1918961); conditions: Karpas417 myeloma viability, CellTiter-Glo ATP luminescence, 48 h; viability (% of DMSO): at 45.8 µM (top of the series)
Method in brief: (§1)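 CellTiter-Glo luminescence (ATP) after 48 h compound exposure, 37C/5% CO2; 500 cells/well; MIPE 4.0 approved/investigational drugs pinned in; DMSO = 100%, media only = 0% viability.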

[2] = Quantitative High-Throughput drug screen in 47 multiple myeloma cell lines against the NCATS MIPE library collection: KHM11_PLB cell viability assay (AID 1918962); conditions: KHM11 myeloma cell viability, CellTiter-Glo ATP luminescence, 48 h; series mostly up to 45.8 µM; further: nearly all actives have a fitted effect of over 35% in size
Method in brief: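 Steps: seed 500 cells per well; pin-transfer MIPE 4.0 library; incubate 48 h at 37C, 5% CO2, humidified; add CellTiter-Glo, 5 min room temperature; read luminescence.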

[3] = Quantitative High-Throughput drug screen in 47 multiple myeloma cell lines against the NCATS MIPE library collection: JIM1_ECACC cell viability assay (AID 1918964); conditions: JIM1 myeloma viability, CellTiter-Glo ATP luminescence, 48 h; viability (% of DMSO): at 45.8 µM (top of the series)
Method in brief: (§2)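 Inhibition of cell viability is measured here. Each line was plated at 500 cells per well, treated with MIPE 4.0 drugs, kept 48 hours at 37C, then assayed for ATP content by CellTiter-Glo luminescence.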

[4] = Quantitative High-Throughput drug screen in 47 multiple myeloma cell lines against the NCATS MIPE library collection: INA6_PLB cell viability assay (AID 1918965; further: nearly all actives have a fitted effect of over 55% in size); conditions: INA6 myeloma viability, CellTiter-Glo ATP luminescence, 48 h; series mostly up to 45.8 µM
Method in brief: as §1

[5] = Quantitative High-Throughput drug screen in 47 multiple myeloma cell lines against the NCATS MIPE library collection: JJN3_DSMZ cell viability assay (AID 1918966; further: nearly all actives have a fitted effect of over 50% in size)
Method in brief: as §2

[6] = Quantitative High-Throughput drug screen in 47 multiple myeloma cell lines against the NCATS MIPE library collection: KMS12BM_JCRB cell viability assay (AID 1918971); further: nearly all actives have a fitted effect of over 35% in size
Method in brief: (§3)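 Viability readout: CellTiter-Glo luminescence following 5 min room-temperature incubation with reagent. Prior exposure: 48 h, 37C, humidified 5% CO2, 500 cells per well.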

[7] = Quantitative High-Throughput drug screen in 47 multiple myeloma cell lines against the NCATS MIPE library collection: KMS12PE_JCRB cell viability assay (AID 1918972); conditions: KMS12PE myeloma viability, CellTiter-Glo ATP, 48 h; viability: at 45.8 µM (top of the series); further: nearly all actives have a fitted effect of over 30% in size
Method in brief: as §1

[8] = Quantitative High-Throughput drug screen in 47 multiple myeloma cell lines against the NCATS MIPE library collection: KMS20_JCRB cell viability assay (AID 1918973); conditions: CellTiter-Glo ATP, 48 h; viability (% of DMSO): at 45.8 µM (top of the series); further: nearly all actives have a fitted effect of over 45% in size
Method in brief: as §2

[9] = Quantitative High-Throughput drug screen in 47 multiple myeloma cell lines against the NCATS MIPE library collection: KMS26_JCRB cell viability assay (AID 1918975); conditions: KMS26 myeloma cells viability, CellTiter-Glo ATP, 48 h; viability (% of DMSO): at 45.8 µM (top of the series); further: nearly all actives have a fitted effect of over 45% in size
Method in brief: as §3

[10] = Quantitative High-Throughput drug screen in 47 multiple myeloma cell lines against the NCATS MIPE library collection: MMM1_PLB cell viability assay (AID 1918976); further: nearly all actives have a fitted effect of over 35% in size
Method in brief: (§4)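 500 cells/well; MIPE 4.0 drugs pin-transferred; 48 h, 37C, 5% CO2. CellTiter-Glo, 5 min RT, luminescence. Controls: DMSO 100%, media 0%.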

[11] = Quantitative High-Throughput drug screen in 47 multiple myeloma cell lines against the NCATS MIPE library collection: MOLP8_DSMZ cell viability assay (AID 1918977); further: nearly all actives have a fitted effect of over 45% in size
Method in brief: as §4

[12] = Quantitative High-Throughput drug screen in 47 multiple myeloma cell lines against the NCATS MIPE library collection: OCIMY1_PLB cell viability assay (AID 1918979); further: nearly all actives have a fitted effect of over 35% in size
Method in brief: as §4

[13] = Quantitative High-Throughput drug screen in 47 multiple myeloma cell lines against the NCATS MIPE library collection: MM1S_ATCC cell viability assay (AID 1918980); further: nearly all actives have a fitted effect of over 45% in size
Method in brief: as §4

[14] = Quantitative High-Throughput drug screen in 47 multiple myeloma cell lines against the NCATS MIPE library collection: Karpas25_ECACC cell viability assay (AID 1918968; further: nearly all actives have a fitted effect of over 35% in size)
Method in brief: as §2

[15] = Quantitative High-Throughput drug screen in 47 multiple myeloma cell lines against the NCATS MIPE library collection: KMS27_JCRB cell viability assay (AID 1918970); conditions: KMS27 myeloma cells, CellTiter-Glo ATP viability, 48 h; viability (% of DMSO): at 45.8 µM (top of the series); further: nearly all actives have a fitted effect of over 30% in size
Method in brief: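 KMS27_JCRB myeloma cells, 500 per well, exposed 48 h at 37 C, 5% CO2 to MIPE 4.0 compounds. Viability from ATP by CellTiter-Glo luminescence, normalized to DMSO (100%) and medium-only (0%) wells.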

[16] = Quantitative High-Throughput drug screen in 47 multiple myeloma cell lines against the NCATS MIPE library collection: KMS21BM_JCRB cell viability assay (AID 1918974); conditions: ATP luminescence, 48 h; viability: at 45.8 µM (top of the series)
Method in brief: as §2

[17] = Quantitative High-Throughput drug screen in 47 multiple myeloma cell lines against the NCATS MIPE library collection: MM1R_ATCC cell viability assay (AID 1918981); further: nearly all actives have a fitted effect of over 35% in size
Method in brief: as §4

[18] = Quantitative High-Throughput drug screen in 47 multiple myeloma cell lines against the NCATS MIPE library collection: NCIH929_DSMZ cell viability assay (AID 1918978); conditions: NCI-H929 myeloma viability, CellTiter-Glo ATP, 48 h; series mostly up to 45.8 µM; further: nearly all actives have a fitted effect of over 35% in size
Method in brief: as §4
Potency means the concentration at half of the fitted maximal effect.

Compound | Potency [1] | Potency [2] | Potency [3] | Potency [4] | Potency [5] | Potency [6] | Potency [7] | Potency [8] | Potency [9] | Potency [10] | Potency [11] | Potency [12] | Potency [13] | Potency [14] | Potency [15] | Potency [16] | Potency [17] | Potency [18]
C[C@]12CC[C@H]3[C@@H](CCC4=CC(=O)CC[C@@]43C)[C@H]1CC[C@H]2O | inconclusive: 5.9 nM [cytotoxic, full curve, poor fit] | inactive | inactive | inactive | inconclusive: 59 nM [rising, full curve, poor fit] | inconclusive: 10.5 nM [rising, full curve, poor fit] | inconclusive: 20900 nM [cytotoxic, partial curve, poor fit] | inactive | inconclusive: 11800 nM [rising, single point] | inconclusive: 11.8 nM [rising, full curve, poor fit] | inactive | inconclusive: 9.3 nM [rising, full curve, poor fit] | inactive | – | – | – | – | –
NCC1(CC(=O)O)CCCCC1 | inconclusive: 11800 nM [rising, partial curve, poor fit] | inconclusive: 2.6 nM [rising, full curve, poor fit] | inconclusive: 5260 nM [rising, partial curve, poor fit] | inactive | inactive | inactive | – | inconclusive: 20.9 nM [rising, full curve, poor fit] | inconclusive: 743 nM [rising, full curve, poor fit] | inconclusive: 52.6 nM [rising, full curve] | inconclusive: 23500 nM [rising, partial curve, poor fit] | inconclusive: 14.8 nM [rising, full curve, poor fit] | inactive | inactive | inconclusive: 1.9 nM [rising, full curve, poor fit] | inconclusive: 6620 nM [cytotoxic, partial curve, poor fit] | inconclusive: 52.6 nM [rising, full curve, poor fit] | –
COc1ccc2c(c1)[C@]13CCCCC1C(C2)N(C)CC3 (stereo not given in full) | inconclusive: 11.8 nM [cytotoxic, full curve, poor fit] | inconclusive: 2.1 nM [rising, full curve, poor fit] | inactive | inactive | inconclusive: 14800 nM [cytotoxic, partial curve, poor fit] | – | – | inconclusive: 1180 nM [rising, full curve, poor fit] | inconclusive: 1 nM [cytotoxic] | inactive | inactive | inactive | inconclusive: 18700 nM [cytotoxic, partial curve, poor fit] | inactive | – | inconclusive: 5260 nM [rising, partial curve, poor fit] | inactive | –
O=C(O)CCCc1ccc(N(CCCl)CCCl)cc1 | inconclusive: 3.7 nM [cytotoxic, full curve, poor fit] | inconclusive: 5260 nM [rising, partial curve] | inconclusive: 18700 nM [rising, partial curve, poor fit] | active: 18700 nM | inconclusive: 3.7 nM [rising, full curve, poor fit] | inconclusive: 118 nM [rising, full curve, poor fit] | inactive | inconclusive: 9350 nM [cytotoxic, full curve, poor fit] | inconclusive: 2350 nM [rising, full curve, poor fit] | inconclusive: 23500 nM [cytotoxic, single point] | inconclusive: 9350 nM [cytotoxic, full curve, poor fit] | – | inconclusive: 37200 nM [cytotoxic, single point] | inconclusive: 16600 nM [cytotoxic, partial curve, poor fit] | inconclusive: 9350 nM [rising, partial curve, poor fit] | inactive | – | inconclusive: 18700 nM [cytotoxic, single point]
O=C1CCC[C@@H]2[C@H]3CCCN4CCC[C@@H](CN12)[C@@H]34 | inconclusive: 10500 nM [rising, full curve, poor fit] | inconclusive: 1 nM | inactive | inactive | inconclusive: 1.3 nM [rising, full curve] | inconclusive: 3.7 nM [rising, full curve] | – | inconclusive: 148 nM [cytotoxic, full curve, poor fit] | inactive | inconclusive: 1.9 nM [rising, full curve, poor fit] | inconclusive: 2.3 nM [rising, full curve, poor fit] | inconclusive: 1.3 nM [rising, full curve, poor fit] | inconclusive: 2.1 nM [rising, full curve] | inconclusive: 33200 nM [cytotoxic, single point] | – | inconclusive: 1660 nM [rising, partial curve, poor fit] | inconclusive: 1.7 nM [rising, full curve] | inactive
